Experimental data from US20240366655A1, “COMBINATION DRUG THERAPIES” (CYBIN IRL LIMITED, priority 2021, published 2024).
The name of at least one read-out is uncertain.

Test: Plasma pharmacokinetics of co-administered DMT and DMT-d10 by intravenous (bolus), oral gavage and inhalation administration to male rats
Details: inhalation vs oral

[2H]C([2H])([2H])N(C([2H])([2H])[2H])C([2H])([2H])C([2H])([2H])c1c[nH]c2ccccc12 [DMT-d10, 2-(1H-indol-3-yl)-N,N-bis(methyl-d3)ethan-1-amine-1,1,2,2-d4]
inhalation bioavailability relative to oral bioavailability: approximately 20 ×
